# From PubChem BioAssay AID504467 (National Center for Advancing Translational Sciences (NCATS), 2011)
# Among all 330,000 compounds or so, about 7,700 (2.3%) were called active. This list was built around the results that the source calls inconclusive (neither active nor inactive); the mix of calls is not that of the screen. Calls follow the shape of the dose curve; as a rule, active = well fitted inhibition curve with a large enough effect; inconclusive = small, poorly fitted or top-dose-only effect, or effect the other way; inactive = flat fitted curve, though single readings scatter. A potency beside an inconclusive call is a rough fit, not a confirmed value.
# Test: qHTS screen for small molecules that inhibit ELG1-dependent DNA repair in human embryonic kidney (HEK293T) cells expressing luciferase-tagged ELG1; also: nearly all actives have a fitted effect of over 55% in size
# Settings: HEK293T ELG1-luciferase reporter, luminescence, 16 h, DNA damage induced by 5-fluorouridine; activity change, negative = inhibition: at 46.1 µM (top of the series)
# Summary of the method: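 5-Fluorouridine DNA damage + compound/DMSO, 2,000 cells/well, 16 h, 37 °C/5% CO2. ONE-Glo, 30 min RT, luminescence. Readout = decrease in reporter signal.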
# % is scaled to controls: 0 for no effect and ±100 for the full control effect; potency is read from the fitted curve at half-maximal effect.
SMILES,Potency,"activity change, negative = inhibition"
C[C@@]12CC(=O)NC1N(C(=O)c1cccc(C(F)(F)F)c1)C(c1ccccc1OC(=O)c1cccc(C(F)(F)F)c1)C2 (stereo not given in full),"inconclusive: 32.6 µM [inhibitor, partial curve, poor fit]",–
O=C(CCN1C(=O)[C@@H]2Cc3ccccc3CN2C1=O)NCc1ccc(Cl)cc1,–,inactive: 0.789%
COc1ccc(Br)c(C(=O)Nc2nc3ccccc3[nH]2)c1,"inconclusive: 14.6 µM [activator, partial curve]",–
COc1ccccc1NC(=O)N1CCC(C(=O)c2ccc(F)cc2)CC1,"inconclusive: 32.6 µM [inhibitor, partial curve, poor fit]",–
CCc1c(C)nc2cc(-c3ccc(OC)cc3)[nH]n2c1=O,"inconclusive: 20.6 µM [activator, partial curve]",–
CCOc1ccc(N2C(=O)CC(SCC(=O)O)C2=O)cc1 (stereo not given),–,inactive: -2.89%
COc1ccc(-c2nc(NC(=O)c3ccc(OCC(=O)Nc4ccc(F)cc4)c(OC)c3)sc2C)cc1,"inconclusive: 4.11 µM [inhibitor, partial curve]",–
O=C1C=C(Nc2ccccc2)C(=O)c2ccccc21,"inconclusive: 2.91 µM [activator, partial curve]",–
COc1ccc([N+](=O)[O-])cc1N(CC(=O)NC(C(C)C)C(C)C)S(C)(=O)=O,"inconclusive: 18.3 µM [inhibitor, single point]",–
CCCc1nc2ccc(NC(=O)c3cccs3)cc2c(=O)n1Cc1ccc(Cl)cc1,active: 16.4 µM,–
Cc1cccc(N2CCCn3c2nc2c3c(=O)n(CCN3CCOCC3)c(=O)n2C)c1,"inconclusive: 2.91 µM [inhibitor, partial curve, poor fit]",–
O=C1N=NC2=C1c1c3ccccc3c(O)n1CC2,–,inactive: -7.58%
Cn1cc(-c2cccc(Cl)c2)cc(C#N)c1=O,–,inactive: 26.1%
Cc1cc(O)c(C(C)C)cc1C1(c2cc(C(C)C)c(O)cc2C)OC(=O)c2ccccc21,active: 16.4 µM,–
COc1ccc(C2CC(=O)C3=C(C2)Nc2ccccc2N(C(=O)CCC(=O)O)C3c2ccc(F)cc2)cc1 (stereo not given),–,inactive: -0.441%
Cc1ccc(OCC(=O)NC(=S)Nc2cccc(C)n2)cc1,–,inactive: 17%
COc1ccc(N2CCN(CC(=O)Nc3cccc(S(=O)(=O)N4CCOCC4)c3)CC2)cc1,–,inactive: -10.5%
N#C/C(=C1/CCCCCN1)c1nc2ccccc2s1,"inconclusive: 20.6 µM [activator, single point]",–
O=C(NCCc1cccc(C(F)(F)F)c1)C1CCC(=O)N(CCc2cccc(F)c2)C1 (stereo not given),–,inactive: 2.3%
CCN(CC)S(=O)(=O)c1ccc(C(=O)NCCc2cc3c(OC)ccc(OC)c3[nH]c2=O)cc1,"inconclusive: 23.1 µM [inhibitor, single point]",–

# Quoted at random: two compounds from above.
SMILES,Potency,"activity change, negative = inhibition"
Cc1ccc(OCC(=O)NC(=S)Nc2cccc(C)n2)cc1,–,inactive: 17%
O=C(CCN1C(=O)[C@@H]2Cc3ccccc3CN2C1=O)NCc1ccc(Cl)cc1,–,inactive: 0.789%
